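Vaccinia-infected cells with a two-color viral stage reporter; Venus fluorescence read on a plate reader; the cell line is not named here; timing not stated here. The test concentration is not given here. Percent change in Venus reporter signal; lower (more negative) values mean stronger inhibition of that viral stage.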

Values are in %. The controls that fix the scale are not given here. Common to all entries: measured here: Venus reporter, other viral stage. Part of the compounds only, not a random draw; the main read-out is not listed here.

Compound	activity change (Venus) (%)
O=C(Nc1ccccc1)N1CCCCN2[C@H](CO)[C@@H](c3ccc(C4=CCCCC4)cc3)[C@H]2C1	-69.25
COc1cccc(S(=O)(=O)N2CCCCN3[C@@H](CO)[C@H](c4ccc(C#CCC(C)C)cc4)[C@@H]3C2)c1	-49.29
Cc1ccccc1-c1ccc(C2[C@@H]3CN(S(=O)(=O)c4ccccc4)C[C@H]2N3)cc1 (stereo partly specified)	-49.81
C[C@H](CO)N1C[C@H](C)[C@@H](CN(C)C(=O)Nc2ccc(C(F)(F)F)cc2)OCCCC[C@H](C)Oc2ccc(NS(C)(=O)=O)cc2C1=O	-24.98
C[C@H]1CN([C@@H](C)CO)C(=O)CCCn2nncc2CO[C@H]1CN(C)Cc1ccc(Oc2ccccc2)cc1	-45.02
CC(C)CC#Cc1ccc2c(c1)O[C@H](CN(C)C(=O)Cc1ccccn1)[C@@H](C)CN([C@@H](C)CO)S2(=O)=O	-23.61
C[C@H]1CN([C@@H](C)CO)C(=O)Cc2cc(N(C)C)ccc2O[C@@H]1CN(C)Cc1ccc(-c2ccccc2)cc1	-35.04
Cc1ccccc1-c1ccc([C@H]2[C@H]3CN(S(=O)(=O)c4cn(C)cn4)CCCCN3[C@H]2CO)cc1	-52.97
CCCC#Cc1ccc([C@H]2[C@@H](C#N)N(C(=O)C3CCCCC3)[C@H]2CO)cc1	-33.68
COc1ccc(S(=O)(=O)N[C@H]2CC[C@@H](CCn3cc(-c4ccccc4F)nn3)O[C@@H]2CO)cc1	-24.33
COc1ccc(CN(C)C[C@H]2OCCCC[C@@H](C)Oc3ccc(NS(=O)(=O)c4ccccc4)cc3C(=O)N([C@@H](C)CO)C[C@H]2C)cc1	-41.52
c1cncc(-c2ccc(C3[C@@H]4CN(Cc5nccs5)C[C@H]3N4)cc2)c1 (stereo partly specified)	-77.82
C[C@H]1CN([C@@H](C)CO)C(=O)c2cccc(NC(=O)CCCCCC(=O)Nc3ccccc3N)c2O[C@H]1CN(C)Cc1ccc(Oc2ccccc2)cc1	-36.94
C[C@@H]1CN([C@H](C)CO)C(=O)Cc2cc(NS(=O)(=O)c3ccc(F)cc3)ccc2O[C@@H]1CN(C)Cc1ccc(C(F)(F)F)cc1	-33.08
COc1cccc(C#Cc2ccc3c(c2)O[C@@H](CN(C)C(C)=O)[C@@H](C)CN([C@H](C)CO)S3(=O)=O)c1	-28.86
C[C@H](CO)N1C[C@H](C)[C@@H](CN(C)C(=O)Nc2ccc(F)cc2)Oc2cc(/C=C/c3ccccc3)ccc2S1(=O)=O	-53.81
O=C(Nc1ccc(F)cc1)N1CCCCN2[C@H](CO)[C@H](c3ccc(C#CC4CC4)cc3)[C@@H]2C1	-31.55
Cc1noc(C)c1S(=O)(=O)Nc1ccc2c(c1)C(=O)N([C@H](C)CO)C[C@@H](C)[C@H](CN(C)S(=O)(=O)c1ccc(Cl)cc1)OCCCC[C@@H](C)O2	-59.37
COc1ccc(-c2ccc3c(c2)O[C@H](CN(C)C(=O)Nc2ccccc2F)[C@H](C)CN([C@@H](C)CO)S3(=O)=O)cc1	-39.95
N#Cc1cccc(-c2ccc(C3[C@H]4CNC[C@@H]3N4Cc3ccc(F)cc3)cc2)c1 (stereo partly specified)	-40.63
O=C(C1CCC1)N1CC(=O)N2[C@H](CO)[C@@H](c3ccc(-c4ccccc4F)cc3)[C@@H]2C1	-51.84
COc1ccc(S(=O)(=O)Nc2ccc3c(c2)CC(=O)N([C@H](C)CO)C[C@H](C)[C@H](CN(C)Cc2ccc(Cl)c(Cl)c2)O3)cc1	-31.9
C[C@@H]1CN([C@@H](C)CO)C(=O)c2cc(NC(=O)C3CCCCC3)ccc2O[C@@H](C)CCCCO[C@H]1CN(C)C(=O)Cc1ccccc1	-24.45
COc1ccccc1-c1ccc2c(c1)O[C@@H](CN(C)Cc1ccc3c(c1)OCO3)[C@@H](C)CN([C@H](C)CO)S2(=O)=O	-34.79
C[C@@H]1CN([C@H](C)CO)S(=O)(=O)c2ccc(C#CC3CC3)cc2O[C@@H]1CN(C)Cc1cccc(F)c1	-80.63
Cc1ccc(S(=O)(=O)Nc2ccc3c(c2)C(=O)N([C@H](C)CO)C[C@H](C)[C@H](CN(C)Cc2ccc(Cl)c(Cl)c2)OCCCC[C@@H](C)O3)cc1	-37.38
C[C@@H]1CN([C@@H](C)CO)S(=O)(=O)c2ccc(-c3ccccc3)cc2O[C@@H]1CN(C)C(=O)c1ccc2c(c1)OCO2	-31.07
C[C@@H]1CCCCO[C@H](CN(C)Cc2ccc(C(F)(F)F)cc2)[C@@H](C)CN([C@@H](C)CO)C(=O)c2cc(NS(=O)(=O)c3ccc(F)cc3)ccc2O1	-84.14
COc1ccc(C#Cc2ccc([C@@H]3[C@H](CO)N4CCCCN(C(=O)Nc5ccccc5F)C[C@@H]34)cc2)cc1	-58.9
COc1cccc(-c2ccc3c(c2)[C@@H]2[C@@H](CCN2S(=O)(=O)c2ccccc2F)[C@H](CO)N3)c1	-28.85
C[C@@H]1CCCCO[C@H](CN(C)C(=O)Cc2ccccc2)[C@H](C)CN([C@H](C)CO)C(=O)c2cc(NS(=O)(=O)c3ccc(Cl)cc3)ccc2O1	-38.84
C[C@@H]1CN([C@@H](C)CO)S(=O)(=O)c2ccc(/C=C/c3ccccc3)cc2O[C@H]1CN(C)Cc1cncnc1	-34.79
O=C(C[C@H]1CC[C@@H]2[C@H](COC[C@H](O)CN2CC2CCCCC2)O1)NCc1ccc(Cl)cc1	-48.97
O=S(=O)(c1cccs1)N1CCCCN2[C@H](CO)[C@H](c3ccc(-c4ccccc4)cc3)[C@H]2C1	-38.51
C/C=C/c1ccc2c(c1)O[C@H](CN(C)C(=O)Nc1cccc(F)c1)[C@H](C)CN([C@H](C)CO)S2(=O)=O	-28.45
Cc1ccc(-c2ccc3c(c2)O[C@@H](CN(C)C(=O)CC2CC2)[C@@H](C)CN([C@@H](C)CO)S3(=O)=O)cc1	-45.24
C[C@@H]1CN([C@H](C)CO)C(=O)c2cc(NS(=O)(=O)c3ccc(Cl)cc3)ccc2O[C@@H](C)CCCCO[C@@H]1CN(C)Cc1ccncc1	-38.65
C[C@H](CO)N1C[C@H](C)[C@H](CN(C)C(=O)Nc2cccc3ccccc23)Oc2ncc(C#Cc3cccc(F)c3)cc2C1=O	-28.14
C[C@@H]1CN([C@H](C)CO)C(=O)c2cc(C#CCc3ccccc3)cnc2O[C@H]1CN(C)CC1CCCC1	-74.75
COc1ccc(NC(=O)Nc2ccc3c(c2)C(=O)N([C@@H](C)CO)C[C@@H](C)[C@@H](CN(C)Cc2ccc(-c4ccccc4)cc2)O3)cc1	-43.29
CCCNC(=O)N1[C@H](C#N)[C@H](c2ccc(-c3ccccc3F)cc2)[C@H]1CO	-33.56
CN1C(=O)c2cc(NC(=O)c3ccc(F)c(F)c3)ccc2OC[C@H]2O[C@@H](CC(=O)N3CCCCC3)CC[C@H]21	-18.68
COc1cccc(-c2ccc3c(c2)O[C@H](CN(C)C(=O)c2ccccc2F)[C@@H](C)CN([C@@H](C)CO)S3(=O)=O)c1	-49.55
C[C@H](CO)N1C[C@H](C)[C@H](CN(C)C(=O)Cc2ccncc2)Oc2cc(C#CC3CCCCC3)ccc2S1(=O)=O	-48.08
C[C@@H]1CN([C@H](C)CO)C(=O)Cc2cc(NC(=O)C3CC3)ccc2O[C@@H]1CN(C)Cc1ccc(C(F)(F)F)cc1	-53.56
Cc1ccc(S(=O)(=O)Nc2ccc3c(c2)C(=O)N([C@@H](C)CO)C[C@@H](C)[C@H](CN(C)S(=O)(=O)c2c(C)noc2C)OCCCC[C@@H](C)O3)cc1	-43.29
C[C@@H]1CN([C@@H](C)CO)S(=O)(=O)c2ccc(C#Cc3ccccc3F)cc2O[C@@H]1CN(C)C(=O)Cc1cccnc1	-33.51
Cc1ccc(-c2ccc3c(c2)O[C@H](CN(C)C(=O)Nc2ccccc2)[C@H](C)CN([C@H](C)CO)S3(=O)=O)cc1	-63.39

Repeated from the top, 3 entries:

Compound,activity change (Venus) (%)
O=C(Nc1ccccc1)N1CCCCN2[C@H](CO)[C@@H](c3ccc(C4=CCCCC4)cc3)[C@H]2C1,-69.25
COc1cccc(S(=O)(=O)N2CCCCN3[C@@H](CO)[C@H](c4ccc(C#CCC(C)C)cc4)[C@@H]3C2)c1,-49.29
Cc1ccccc1-c1ccc(C2[C@@H]3CN(S(=O)(=O)c4ccccc4)C[C@H]2N3)cc1 (stereo partly specified),-49.81

The results are deposited in PubChem (AID1053133; Broad Institute, 2014).